Assay results published in patent publication US20080004192A1, “Composition” (Givaudan SA, priority 2004, published 2008).

Test: Perfume deposition on hair swatches, pentane extraction and GC-MS
Conditions: wet stage, Example 2, silicone-solubilised fragrance (Sample 4 vs Sample 3)

Compound | Deposition of particular fragrance component increased by a factor
CC1COCc2cc3c(cc21)C(C)(C)C(C)C3(C)C (stereo not drawn) [Galaxolide™] | 45
C=CC(C)(O)CCC=C(C)C (stereo not drawn) [Linalool] | 45
CO[C@]1(C)CC[C@@]23C[C@@H]1C(C)(C)[C@@H]2CC[C@H]3C [cedryl methyl ether] | 11
